# Laboratory results from the supplement of paper PMC12819154, “High-throughput peptide-centric local stability assay extends protein–ligand identification to membrane proteins, tissues and bacteria” (Nature Structural & Molecular Biology, 2025).
# Chains of the proteins cited; added tags and fusions are not shown. Lines headed by an entry give the natural chain unless they say otherwise; changes in a name come on top.
# UniProt Q9H147: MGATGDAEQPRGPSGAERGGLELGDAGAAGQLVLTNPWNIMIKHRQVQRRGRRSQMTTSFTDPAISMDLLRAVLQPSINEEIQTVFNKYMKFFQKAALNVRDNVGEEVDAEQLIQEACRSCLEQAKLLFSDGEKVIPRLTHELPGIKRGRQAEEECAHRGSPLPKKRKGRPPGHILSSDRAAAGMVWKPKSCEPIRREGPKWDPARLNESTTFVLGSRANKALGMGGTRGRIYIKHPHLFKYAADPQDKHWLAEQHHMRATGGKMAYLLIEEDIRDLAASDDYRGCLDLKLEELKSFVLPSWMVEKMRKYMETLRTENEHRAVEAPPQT
# UniProt Q9BWT7: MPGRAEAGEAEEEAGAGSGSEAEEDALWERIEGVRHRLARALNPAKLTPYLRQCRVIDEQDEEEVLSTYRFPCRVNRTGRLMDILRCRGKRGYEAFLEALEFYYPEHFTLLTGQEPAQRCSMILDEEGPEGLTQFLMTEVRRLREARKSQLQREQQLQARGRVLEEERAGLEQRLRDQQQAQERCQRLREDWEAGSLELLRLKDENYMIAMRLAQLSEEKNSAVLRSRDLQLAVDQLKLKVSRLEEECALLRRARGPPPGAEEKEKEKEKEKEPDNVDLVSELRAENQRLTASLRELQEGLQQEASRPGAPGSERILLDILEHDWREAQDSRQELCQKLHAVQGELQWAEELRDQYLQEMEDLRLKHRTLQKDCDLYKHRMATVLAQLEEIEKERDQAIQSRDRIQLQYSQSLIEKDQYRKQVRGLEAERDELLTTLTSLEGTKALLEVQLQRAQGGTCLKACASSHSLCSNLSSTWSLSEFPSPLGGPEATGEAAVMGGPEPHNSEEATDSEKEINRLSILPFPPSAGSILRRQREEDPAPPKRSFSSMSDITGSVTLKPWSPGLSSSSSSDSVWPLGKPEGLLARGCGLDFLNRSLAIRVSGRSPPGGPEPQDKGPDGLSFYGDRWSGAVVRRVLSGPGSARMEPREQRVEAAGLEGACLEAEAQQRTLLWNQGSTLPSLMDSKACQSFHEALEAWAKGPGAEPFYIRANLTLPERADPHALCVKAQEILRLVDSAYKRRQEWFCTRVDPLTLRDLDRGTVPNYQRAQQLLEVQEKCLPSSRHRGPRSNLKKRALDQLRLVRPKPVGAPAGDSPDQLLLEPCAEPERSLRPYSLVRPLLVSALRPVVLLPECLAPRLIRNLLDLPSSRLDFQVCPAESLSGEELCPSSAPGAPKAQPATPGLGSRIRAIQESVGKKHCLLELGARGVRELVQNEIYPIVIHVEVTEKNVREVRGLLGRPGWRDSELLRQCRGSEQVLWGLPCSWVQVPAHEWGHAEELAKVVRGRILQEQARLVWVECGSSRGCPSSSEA
# UniProt Q9BZK7: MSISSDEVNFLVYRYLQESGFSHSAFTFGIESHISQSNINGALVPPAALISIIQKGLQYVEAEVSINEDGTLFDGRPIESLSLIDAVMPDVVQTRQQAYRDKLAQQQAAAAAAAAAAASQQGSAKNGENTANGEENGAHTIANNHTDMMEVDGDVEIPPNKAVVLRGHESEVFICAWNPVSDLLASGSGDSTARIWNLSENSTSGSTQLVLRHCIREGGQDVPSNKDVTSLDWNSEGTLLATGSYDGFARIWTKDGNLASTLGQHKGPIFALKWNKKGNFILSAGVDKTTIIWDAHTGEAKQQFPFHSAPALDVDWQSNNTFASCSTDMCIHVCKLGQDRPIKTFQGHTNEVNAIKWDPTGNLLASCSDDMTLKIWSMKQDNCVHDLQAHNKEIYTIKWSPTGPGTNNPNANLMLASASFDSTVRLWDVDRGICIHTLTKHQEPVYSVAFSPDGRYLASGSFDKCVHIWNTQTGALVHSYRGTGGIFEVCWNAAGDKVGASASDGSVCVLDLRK
# UniProt Q9H0E9, whole entry: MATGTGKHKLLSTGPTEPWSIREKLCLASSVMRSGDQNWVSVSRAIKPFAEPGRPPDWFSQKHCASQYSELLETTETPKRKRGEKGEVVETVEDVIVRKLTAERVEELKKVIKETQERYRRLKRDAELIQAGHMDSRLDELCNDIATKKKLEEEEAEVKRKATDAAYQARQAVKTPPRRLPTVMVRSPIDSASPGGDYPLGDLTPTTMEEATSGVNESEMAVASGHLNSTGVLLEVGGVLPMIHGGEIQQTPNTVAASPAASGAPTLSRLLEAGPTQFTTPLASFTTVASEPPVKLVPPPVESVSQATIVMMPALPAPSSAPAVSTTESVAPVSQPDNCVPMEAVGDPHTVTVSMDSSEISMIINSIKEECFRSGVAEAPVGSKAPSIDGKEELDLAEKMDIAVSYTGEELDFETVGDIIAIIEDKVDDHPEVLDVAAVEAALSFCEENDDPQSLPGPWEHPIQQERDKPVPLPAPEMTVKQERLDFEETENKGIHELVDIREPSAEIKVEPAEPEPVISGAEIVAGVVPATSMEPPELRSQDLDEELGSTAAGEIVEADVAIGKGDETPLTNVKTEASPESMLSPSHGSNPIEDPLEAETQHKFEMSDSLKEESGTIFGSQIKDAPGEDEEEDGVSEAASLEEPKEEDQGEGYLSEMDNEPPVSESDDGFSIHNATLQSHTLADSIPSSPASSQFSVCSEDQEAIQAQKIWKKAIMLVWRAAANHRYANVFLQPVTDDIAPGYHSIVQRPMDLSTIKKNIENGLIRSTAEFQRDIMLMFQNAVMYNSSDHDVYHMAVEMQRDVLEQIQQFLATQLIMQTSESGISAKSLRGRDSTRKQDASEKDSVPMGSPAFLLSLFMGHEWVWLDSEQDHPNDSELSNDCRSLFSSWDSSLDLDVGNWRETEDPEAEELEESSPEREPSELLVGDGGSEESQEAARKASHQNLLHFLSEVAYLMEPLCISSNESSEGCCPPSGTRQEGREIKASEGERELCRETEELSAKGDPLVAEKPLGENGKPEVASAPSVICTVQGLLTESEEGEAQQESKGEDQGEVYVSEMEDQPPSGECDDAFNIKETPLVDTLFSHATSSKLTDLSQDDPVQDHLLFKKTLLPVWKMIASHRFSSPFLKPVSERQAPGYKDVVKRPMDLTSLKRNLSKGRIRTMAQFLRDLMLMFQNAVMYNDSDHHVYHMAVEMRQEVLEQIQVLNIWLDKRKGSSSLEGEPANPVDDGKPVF
# UniProt Q9H160: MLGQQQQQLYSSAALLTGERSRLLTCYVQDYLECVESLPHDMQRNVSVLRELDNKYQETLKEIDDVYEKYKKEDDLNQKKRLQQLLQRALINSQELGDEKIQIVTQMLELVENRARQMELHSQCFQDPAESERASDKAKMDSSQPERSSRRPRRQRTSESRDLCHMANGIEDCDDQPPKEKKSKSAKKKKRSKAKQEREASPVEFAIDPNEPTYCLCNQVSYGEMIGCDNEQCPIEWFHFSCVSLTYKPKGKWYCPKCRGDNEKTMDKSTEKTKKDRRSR
# UniProt Q9C035: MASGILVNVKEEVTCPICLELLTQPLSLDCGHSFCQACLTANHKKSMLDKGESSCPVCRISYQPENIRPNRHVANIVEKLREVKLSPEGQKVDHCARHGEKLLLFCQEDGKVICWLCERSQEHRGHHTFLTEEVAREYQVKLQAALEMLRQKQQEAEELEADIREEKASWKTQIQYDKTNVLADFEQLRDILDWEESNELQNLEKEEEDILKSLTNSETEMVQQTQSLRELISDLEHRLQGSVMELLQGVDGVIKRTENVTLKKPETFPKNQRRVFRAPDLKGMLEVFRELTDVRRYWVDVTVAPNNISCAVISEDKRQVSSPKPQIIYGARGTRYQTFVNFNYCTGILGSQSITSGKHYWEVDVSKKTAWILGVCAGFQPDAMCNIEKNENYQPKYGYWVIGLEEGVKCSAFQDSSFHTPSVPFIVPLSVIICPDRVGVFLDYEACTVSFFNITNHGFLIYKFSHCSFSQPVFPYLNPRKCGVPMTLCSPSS
# UniProt Q9GZX9: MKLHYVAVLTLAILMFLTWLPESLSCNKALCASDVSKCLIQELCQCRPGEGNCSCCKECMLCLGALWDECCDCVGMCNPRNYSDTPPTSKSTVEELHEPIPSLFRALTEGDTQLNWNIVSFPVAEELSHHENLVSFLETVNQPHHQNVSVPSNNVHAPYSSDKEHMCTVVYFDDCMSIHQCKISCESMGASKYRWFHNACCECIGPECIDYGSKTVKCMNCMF
# UniProt Q9H0A0: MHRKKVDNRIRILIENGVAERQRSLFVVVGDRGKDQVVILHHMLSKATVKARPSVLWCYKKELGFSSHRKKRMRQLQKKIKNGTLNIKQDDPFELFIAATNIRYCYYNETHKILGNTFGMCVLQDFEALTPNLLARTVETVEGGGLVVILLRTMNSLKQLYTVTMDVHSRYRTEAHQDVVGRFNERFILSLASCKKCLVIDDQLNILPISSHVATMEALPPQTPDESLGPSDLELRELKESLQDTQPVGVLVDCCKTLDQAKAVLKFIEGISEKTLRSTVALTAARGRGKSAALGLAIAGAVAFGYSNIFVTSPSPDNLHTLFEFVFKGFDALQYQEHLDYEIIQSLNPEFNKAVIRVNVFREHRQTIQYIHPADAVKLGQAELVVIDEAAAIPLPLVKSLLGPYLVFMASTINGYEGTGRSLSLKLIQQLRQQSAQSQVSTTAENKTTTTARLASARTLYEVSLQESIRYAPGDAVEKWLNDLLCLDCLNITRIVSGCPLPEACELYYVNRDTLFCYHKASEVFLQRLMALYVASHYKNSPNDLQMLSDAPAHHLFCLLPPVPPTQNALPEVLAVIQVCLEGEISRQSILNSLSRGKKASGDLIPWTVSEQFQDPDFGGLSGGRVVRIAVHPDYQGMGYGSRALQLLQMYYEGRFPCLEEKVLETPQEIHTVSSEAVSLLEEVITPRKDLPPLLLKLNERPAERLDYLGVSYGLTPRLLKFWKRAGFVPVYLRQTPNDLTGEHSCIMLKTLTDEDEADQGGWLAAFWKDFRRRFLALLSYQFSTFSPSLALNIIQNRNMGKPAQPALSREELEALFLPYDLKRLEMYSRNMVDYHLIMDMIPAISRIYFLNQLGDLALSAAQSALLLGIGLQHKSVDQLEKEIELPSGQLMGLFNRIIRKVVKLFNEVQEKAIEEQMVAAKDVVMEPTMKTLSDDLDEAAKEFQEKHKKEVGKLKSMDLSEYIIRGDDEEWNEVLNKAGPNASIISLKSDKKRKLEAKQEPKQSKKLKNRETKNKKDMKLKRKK
# The list shows a part of the results. Most values lie at the level of the controls, where differences are scatter.
# Compound: Cc1nc(Nc2ncc(C(=O)Nc3c(C)cccc3Cl)s2)cc(N2CCN(CCO)CC2)n1 [dasatinib]
# Test: log2 fold change of tryptic peptide abundance, ligand vs vehicle (limited proteolysis) (log2 ratio); higher = more trypsin-susceptible (destabilized)
# Details: ligand concentration: 5 uM; sample: K562 cleared lysate
row,Target,log2 fold change
1,"DNTTIP1 (peptide sequence: AAAGMVWKPK, peptide start residue: 181) (UniProt Q9H147)",-0.5
2,"UniProt Q9H0M0 (peptide sequence: SILEPDTSNSR, peptide start residue: 309)",0.471
3,"UniProt Q9BWT7 (peptide sequence: ALLEVQLQR, peptide start residue: 445)",0.0197
4,"TBL1XR1 (peptide sequence: GICIHTLTK, peptide start residue: 432) (UniProt Q9BZK7)",-0.277
5,"GTPBP4 (peptide sequence: KREDSAPPSSVAR, peptide start residue: 554) (UniProt Q9BZE4)",0.159
6,"MAP1LC3B (peptide sequence: RTFEQRVEDVR, peptide start residue: 11) (UniProt Q9GZQ8)",0.0608
7,"BRD8 (peptide sequence: NIENGLIR, peptide start residue: 760) (UniProt Q9H0E9)",-0.327
8,"ING2 (peptide sequence: DLCHMANGIEDCDDQPPKEK, peptide start residue: 162) (UniProt Q9H160)",0.462
9,"TRIM5 (peptide sequence: HVANIVEK, peptide start residue: 72) (UniProt Q9C035)",0.0639
10,"TWSG1 (peptide sequence: ALCASDVSK, peptide start residue: 29) (UniProt Q9GZX9)",0.185
11,"NAT10 (peptide sequence: YCYYNETHK, peptide start residue: 104) (UniProt Q9H0A0)",0.118

# Laid out differently: entries from further up.
row	Target	log2 fold change
9	TRIM5 (peptide sequence: HVANIVEK, peptide start residue: 72) (UniProt Q9C035)	0.0639
10	TWSG1 (peptide sequence: ALCASDVSK, peptide start residue: 29) (UniProt Q9GZX9)	0.185
11	NAT10 (peptide sequence: YCYYNETHK, peptide start residue: 104) (UniProt Q9H0A0)	0.118
